Experimental data: PubChem BioAssay AID1259254 (NCATS, 2017)
Screen: 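Finding genes that stop cells copying their DNA twice in one cycle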 (primary screen). System: human HCT116 colorectal cancer cells. Knock-down reagent: single siRNA against human genes. Time to read-out: 3 days. Read-out: 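Nuclei stained with Hoechst and imaged; cell-cycle phase assigned by DNA content; G2 share scaled per plate, non-targeting siRNA 0%, GMNN siRNA 100%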. Reading the numbers: G2 robust z-score and G2 cells, % of GMNN control: higher = more G2 cells, more excess DNA replication. Call rule: 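An siRNA counts as active if its G2 robust z-score lies at least 5 MADs above the screen median; here such calls match roughly 38% of GMNN control or more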.
The whole screen tested about 59,000 reagents; this is an unselected part. About 1,550 of them (2.6%) were called active. 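G2 share is only a proxy for re-replication; each gene was hit by three separate siRNAs, and active genes were retested.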 Unmarked entries are inactive. Further read-outs or replicates are left out here. The record does not give: the amount of reagent.

For MED16 (mediator complex subunit 16) [SID160724170], the entry reads G2 robust z-score -0.709; G2 cells, % of GMNN control -2.02.
With knock-down of MED16 (mediator complex subunit 16) [SID160724177] the results were G2 robust z-score 4.23; G2 cells, % of GMNN control 32.7.
After knock-down of MED16 (mediator complex subunit 16) [SID160724185], the record shows G2 robust z-score -1.07; G2 cells, % of GMNN control -4.57.
JOSD2 (Josephin domain containing 2) [SID160732414] gave G2 robust z-score -0.443; G2 cells, % of GMNN control -0.15.
Depletion of JOSD2 (Josephin domain containing 2) [SID160732416] resulted in: G2 robust z-score 0.0356; G2 cells, % of GMNN control 3.22.
After knock-down of JOSD2 (Josephin domain containing 2) [SID160756403], the record shows G2 robust z-score 0.531; G2 cells, % of GMNN control 6.7.
AP4M1 (adaptor related protein complex 4 subunit mu 1) [SID160721654] gave G2 robust z-score -0.353; G2 cells, % of GMNN control 0.487.
AP4M1 (adaptor related protein complex 4 subunit mu 1) [SID160721656] scored G2 robust z-score -0.00766; G2 cells, % of GMNN control 2.91.
AP4M1 (adaptor related protein complex 4 subunit mu 1) [SID160721657] gave G2 robust z-score 0.674; G2 cells, % of GMNN control 7.71.
CAPZB (capping actin protein of muscle Z-line subunit beta) [SID160731986] gave G2 robust z-score 4; G2 cells, % of GMNN control 31.1.
CAPZB (capping actin protein of muscle Z-line subunit beta) [SID160736477] scored G2 robust z-score -1.16; G2 cells, % of GMNN control -5.19.
CAPZB (capping actin protein of muscle Z-line subunit beta) [SID160736488] scored G2 robust z-score 1.47; G2 cells, % of GMNN control 13.3.

Individual results from the entries so far:
CAPZB (capping actin protein of muscle Z-line subunit beta) [SID160736477], G2 cells, % of GMNN control → -5.19
Under “G2 cells, % of GMNN control”, MED16 (mediator complex subunit 16) [SID160724170] shows -2.02

Next results:
For MEGF9 (multiple EGF like domains 9) [SID160758870], the entry reads G2 robust z-score 0.232; G2 cells, % of GMNN control 4.6.
For MEGF9 (multiple EGF like domains 9) [SID160758879], the values are G2 robust z-score 0.502; G2 cells, % of GMNN control 6.5.
MEGF9 (multiple EGF like domains 9) [SID160758889] scored G2 robust z-score -0.45; G2 cells, % of GMNN control -0.195.
Knock-down of SFTPC (surfactant protein C) [SID160716634] resulted in: G2 robust z-score 5.58 (active); G2 cells, % of GMNN control 42.2.
For SFTPC (surfactant protein C) [SID160716635], the values are G2 robust z-score 1.18; G2 cells, % of GMNN control 11.3.
After knock-down of SFTPC (surfactant protein C) [SID160724076], the record shows G2 robust z-score 0.197; G2 cells, % of GMNN control 4.36.
